Values quoted from earlier work in patent publication US20110313041A1 (priority 2008, published 2011).
For at least one compound, name, drawing or mass did not settle the structure.

Assays:
smooth muscles = conditions: cited from earlier work
striped muscles = conditions: cited from earlier work

For `CC(=O)OCC[N+](C)(C)C` [Acetylcholine], the “concentration that effects smooth muscles (response threshold)” value (smooth muscles) is listed as 10^−16 g/l and the “concentration that effects striped muscles” value (striped muscles) is listed as 10^−6 g/l.
